Results are given in words; binding and its absence hold for the method and conditions named. Binding calls can cover weak binding; strength is not graded here.
B1: Atto488-labelled prf.GLFG_(13×12) (domain or fragment)
chain: GGLFGGNTQPATGGLFGGNTQPATGGLFGGNTQPATGGLFGGNTQPATGGLFGGNTQPATGGLFGGNTQPATGGLFGGNTQPATGGLFGGNTQPATGGLFGGNTQPATGGLFGGNTQPATGGLFGGNTQPATGGLFGGNTQPATGGLFGGNTQPATC
modifications: Atto488-maleimide on the additional C-terminal cysteine
B2: Atto488-labelled prf.GLFG_(18×12) (domain or fragment)
chain: GGLFGGNTQPATGGLFGGNTQPATGGLFGGNTQPATGGLFGGNTQPATGGLFGGNTQPATGGLFGGNTQPATGGLFGGNTQPATGGLFGGNTQPATGGLFGGNTQPATGGLFGGNTQPATGGLFGGNTQPATGGLFGGNTQPATGGLFGGNTQPATGGLFGGNTQPATGGLFGGNTQPATGGLFGGNTQPATGGLFGGNTQPATGGLFGGNTQPATC
modifications: Atto488-maleimide on the additional C-terminal cysteine
B3: Atto488-labelled prf.GLFG_(26×12) (domain or fragment)
chain: GGLFGGNTQPATGGLFGGNTQPATGGLFGGNTQPATGGLFGGNTQPATGGLFGGNTQPATGGLFGGNTQPATGGLFGGNTQPATGGLFGGNTQPATGGLFGGNTQPATGGLFGGNTQPATGGLFGGNTQPATGGLFGGNTQPATGGLFGGNTQPATGGLFGGNTQPATGGLFGGNTQPATGGLFGGNTQPATGGLFGGNTQPATGGLFGGNTQPATGGLFGGNTQPATGGLFGGNTQPATGGLFGGNTQPATGGLFGGNTQPATGGLFGGNTQPATGGLFGGNTQPATGGLFGGNTQPATGGLFGGNTQPATC
modifications: Atto488-maleimide on the additional C-terminal cysteine
B4: Atto488-labelled prf.GLFG_(37×12) (domain or fragment)
chain: GGLFGGNTQPATGGLFGGNTQPATGGLFGGNTQPATGGLFGGNTQPATGGLFGGNTQPATGGLFGGNTQPATGGLFGGNTQPATGGLFGGNTQPATGGLFGGNTQPATGGLFGGNTQPATGGLFGGNTQPATGGLFGGNTQPATGGLFGGNTQPATGGLFGGNTQPATGGLFGGNTQPATGGLFGGNTQPATGGLFGGNTQPATGGLFGGNTQPATGGLFGGNTQPATGGLFGGNTQPATGGLFGGNTQPATGGLFGGNTQPATGGLFGGNTQPATGGLFGGNTQPATGGLFGGNTQPATGGLFGGNTQPATGGLFGGNTQPATGGLFGGNTQPATGGLFGGNTQPATGGLFGGNTQPATGGLFGGNTQPATGGLFGGNTQPATGGLFGGNTQPATGGLFGGNTQPATGGLFGGNTQPATGGLFGGNTQPATGGLFGGNTQPATC
modifications: Atto488-maleimide on the additional C-terminal cysteine
B5: Atto488-labelled prf.GLFG_(44×12) (domain or fragment)
chain: GGLFGGNTQPATGGLFGGNTQPATGGLFGGNTQPATGGLFGGNTQPATGGLFGGNTQPATGGLFGGNTQPATGGLFGGNTQPATGGLFGGNTQPATGGLFGGNTQPATGGLFGGNTQPATGGLFGGNTQPATGGLFGGNTQPATGGLFGGNTQPATGGLFGGNTQPATGGLFGGNTQPATGGLFGGNTQPATGGLFGGNTQPATGGLFGGNTQPATGGLFGGNTQPATGGLFGGNTQPATGGLFGGNTQPATGGLFGGNTQPATGGLFGGNTQPATGGLFGGNTQPATGGLFGGNTQPATGGLFGGNTQPATGGLFGGNTQPATGGLFGGNTQPATGGLFGGNTQPATGGLFGGNTQPATGGLFGGNTQPATGGLFGGNTQPATGGLFGGNTQPATGGLFGGNTQPATGGLFGGNTQPATGGLFGGNTQPATGGLFGGNTQPATGGLFGGNTQPATGGLFGGNTQPATGGLFGGNTQPATGGLFGGNTQPATGGLFGGNTQPATGGLFGGNTQPATGGLFGGNTQPATC
modifications: Atto488-maleimide on the additional C-terminal cysteine
B6: Atto488-labelled prf.GLFG_(52×12) (domain or fragment)
chain: GGLFGGNTQPATGGLFGGNTQPATGGLFGGNTQPATGGLFGGNTQPATGGLFGGNTQPATGGLFGGNTQPATGGLFGGNTQPATGGLFGGNTQPATGGLFGGNTQPATGGLFGGNTQPATGGLFGGNTQPATGGLFGGNTQPATGGLFGGNTQPATGGLFGGNTQPATGGLFGGNTQPATGGLFGGNTQPATGGLFGGNTQPATGGLFGGNTQPATGGLFGGNTQPATGGLFGGNTQPATGGLFGGNTQPATGGLFGGNTQPATGGLFGGNTQPATGGLFGGNTQPATGGLFGGNTQPATGGLFGGNTQPATGGLFGGNTQPATGGLFGGNTQPATGGLFGGNTQPATGGLFGGNTQPATGGLFGGNTQPATGGLFGGNTQPATGGLFGGNTQPATGGLFGGNTQPATGGLFGGNTQPATGGLFGGNTQPATGGLFGGNTQPATGGLFGGNTQPATGGLFGGNTQPATGGLFGGNTQPATGGLFGGNTQPATGGLFGGNTQPATGGLFGGNTQPATGGLFGGNTQPATGGLFGGNTQPATGGLFGGNTQPATGGLFGGNTQPATGGLFGGNTQPATGGLFGGNTQPATGGLFGGNTQPATGGLFGGNTQPATGGLFGGNTQPATC
modifications: Atto488-maleimide on the additional C-terminal cysteine
B7: Atto488-labelled prf.GLFG_(70×12) (domain or fragment)
chain: GGLFGGNTQPATGGLFGGNTQPATGGLFGGNTQPATGGLFGGNTQPATGGLFGGNTQPATGGLFGGNTQPATGGLFGGNTQPATGGLFGGNTQPATGGLFGGNTQPATGGLFGGNTQPATGGLFGGNTQPATGGLFGGNTQPATGGLFGGNTQPATGGLFGGNTQPATGGLFGGNTQPATGGLFGGNTQPATGGLFGGNTQPATGGLFGGNTQPATGGLFGGNTQPATGGLFGGNTQPATGGLFGGNTQPATGGLFGGNTQPATGGLFGGNTQPATGGLFGGNTQPATGGLFGGNTQPATGGLFGGNTQPATGGLFGGNTQPATGGLFGGNTQPATGGLFGGNTQPATGGLFGGNTQPATGGLFGGNTQPATGGLFGGNTQPATGGLFGGNTQPATGGLFGGNTQPATGGLFGGNTQPATGGLFGGNTQPATGGLFGGNTQPATGGLFGGNTQPATGGLFGGNTQPATGGLFGGNTQPATGGLFGGNTQPATGGLFGGNTQPATGGLFGGNTQPATGGLFGGNTQPATGGLFGGNTQPATGGLFGGNTQPATGGLFGGNTQPATGGLFGGNTQPATGGLFGGNTQPATGGLFGGNTQPATGGLFGGNTQPATGGLFGGNTQPATGGLFGGNTQPATGGLFGGNTQPATGGLFGGNTQPATGGLFGGNTQPATGGLFGGNTQPATGGLFGGNTQPATGGLFGGNTQPATGGLFGGNTQPATGGLFGGNTQPATGGLFGGNTQPATGGLFGGNTQPATGGLFGGNTQPATGGLFGGNTQPATGGLFGGNTQPATGGLFGGNTQPATGGLFGGNTQPATGGLFGGNTQPATC
modifications: Atto488-maleimide on the additional C-terminal cysteine
B8: Atto488-labelled prf.GLFG_(7×12) (domain or fragment)
chain: GGLFGGNTQPATGGLFGGNTQPATGGLFGGNTQPATGGLFGGNTQPATGGLFGGNTQPATGGLFGGNTQPATGGLFGGNTQPATC
modifications: Atto488-maleimide on the additional C-terminal cysteine

target: XtNup98 FG domain (Xenopus tropicalis); experiment: partitioning into a condensed FG phase (confocal laser scanning microscopy); Atto488-labelled guest (0.125-3 μM, below its saturation concentration) mixed on ice with unlabelled host FG domain (about 5 μM), phase separation at 21 °C (294 K); 20 mM NaPi pH 6.8, 5 mM DTT, 150 mM NaCl (also 300 and 600 mM for the host prf.GLFG_(52×12)[+GLEBS]); partition coefficient = signal inside FG phase : signal in buffer; both purified

Binder | binding
B1 | binds
B2 | binds
B3 | binds
B4 | binds
B5 | binds
B6 | binds
B7 | binds
B8 | binds

target: BfNup98 FG domain (Branchiostoma floridae); experiment: as above

Binder | binding
B1 | binds
B2 | binds
B3 | binds
B4 | binds
B5 | binds
B6 | binds
B7 | binds
B8 | binds

target: AtNup98B FG domain (Arabidopsis thaliana); experiment: as above

Binder | binding
B1 | binds
B2 | binds
B3 | binds
B4 | binds
B5 | binds
B6 | binds
B7 | binds
B8 | binds

target: ScNup116 FG domain (Saccharomyces cerevisiae); experiment: as above

Binder | binding
B1 | binds
B2 | binds
B3 | binds
B4 | binds
B5 | binds
B6 | binds
B7 | binds
B8 | binds

target: TtMac98A FG domain (Tetrahymena thermophila); experiment: as above

Binder | binding
B1 | binds
B2 | binds
B3 | binds
B4 | binds
B5 | binds
B6 | binds
B7 | binds
B8 | binds

— publication PMC9579204
